Patent USRE32098E (Research and Education Institute, Inc., priority 1978, dated 1986)

Assay: Serum T4 concentration by this RIA
Parameters: species or system human

N[C@@H](Cc1cc(I)c(Oc2cc(I)c(O)c(I)c2)c(I)c1)C(=O)O [T4, thyroxine]
Serum T4 (Mean ± SEM) (Estrogen-treated): 13.2 ± 0.79 ug/100 ml | Serum T4 (Mean ± SEM) (Euthyroid): 8.33 ± 0.38 ug/100 ml | Serum T4 (Mean ± SEM) (Hyperthyroid): 24.6 ± 1.39 ug/100 ml | Serum T4 (Mean ± SEM) (Hypothyroid): 3.45 ± 0.36 ug/100 ml
